These are yes or no findings as the source states them, for the method shown. Binding seen in cells or lysates may run through a third protein. A yes stands for co-enrichment or nearness to the bait. Other partners may have been found.
molecular target: GFP-WNK1 (N-terminal GFP knock-in at the endogenous WNK1 locus) (human (endogenous in HEK293)) (UniProt Q9H4A3); experiment: proximity labelling; GFP-WNK1 TurboID cells with or without 0.5 M sorbitol; streptavidin magnetic bead pull-down from 2 mg lysate; immunoblot (Fig. 1F)

Amino acid sequences for entries named in this document (tags omitted).
UniProt Q9H4A3: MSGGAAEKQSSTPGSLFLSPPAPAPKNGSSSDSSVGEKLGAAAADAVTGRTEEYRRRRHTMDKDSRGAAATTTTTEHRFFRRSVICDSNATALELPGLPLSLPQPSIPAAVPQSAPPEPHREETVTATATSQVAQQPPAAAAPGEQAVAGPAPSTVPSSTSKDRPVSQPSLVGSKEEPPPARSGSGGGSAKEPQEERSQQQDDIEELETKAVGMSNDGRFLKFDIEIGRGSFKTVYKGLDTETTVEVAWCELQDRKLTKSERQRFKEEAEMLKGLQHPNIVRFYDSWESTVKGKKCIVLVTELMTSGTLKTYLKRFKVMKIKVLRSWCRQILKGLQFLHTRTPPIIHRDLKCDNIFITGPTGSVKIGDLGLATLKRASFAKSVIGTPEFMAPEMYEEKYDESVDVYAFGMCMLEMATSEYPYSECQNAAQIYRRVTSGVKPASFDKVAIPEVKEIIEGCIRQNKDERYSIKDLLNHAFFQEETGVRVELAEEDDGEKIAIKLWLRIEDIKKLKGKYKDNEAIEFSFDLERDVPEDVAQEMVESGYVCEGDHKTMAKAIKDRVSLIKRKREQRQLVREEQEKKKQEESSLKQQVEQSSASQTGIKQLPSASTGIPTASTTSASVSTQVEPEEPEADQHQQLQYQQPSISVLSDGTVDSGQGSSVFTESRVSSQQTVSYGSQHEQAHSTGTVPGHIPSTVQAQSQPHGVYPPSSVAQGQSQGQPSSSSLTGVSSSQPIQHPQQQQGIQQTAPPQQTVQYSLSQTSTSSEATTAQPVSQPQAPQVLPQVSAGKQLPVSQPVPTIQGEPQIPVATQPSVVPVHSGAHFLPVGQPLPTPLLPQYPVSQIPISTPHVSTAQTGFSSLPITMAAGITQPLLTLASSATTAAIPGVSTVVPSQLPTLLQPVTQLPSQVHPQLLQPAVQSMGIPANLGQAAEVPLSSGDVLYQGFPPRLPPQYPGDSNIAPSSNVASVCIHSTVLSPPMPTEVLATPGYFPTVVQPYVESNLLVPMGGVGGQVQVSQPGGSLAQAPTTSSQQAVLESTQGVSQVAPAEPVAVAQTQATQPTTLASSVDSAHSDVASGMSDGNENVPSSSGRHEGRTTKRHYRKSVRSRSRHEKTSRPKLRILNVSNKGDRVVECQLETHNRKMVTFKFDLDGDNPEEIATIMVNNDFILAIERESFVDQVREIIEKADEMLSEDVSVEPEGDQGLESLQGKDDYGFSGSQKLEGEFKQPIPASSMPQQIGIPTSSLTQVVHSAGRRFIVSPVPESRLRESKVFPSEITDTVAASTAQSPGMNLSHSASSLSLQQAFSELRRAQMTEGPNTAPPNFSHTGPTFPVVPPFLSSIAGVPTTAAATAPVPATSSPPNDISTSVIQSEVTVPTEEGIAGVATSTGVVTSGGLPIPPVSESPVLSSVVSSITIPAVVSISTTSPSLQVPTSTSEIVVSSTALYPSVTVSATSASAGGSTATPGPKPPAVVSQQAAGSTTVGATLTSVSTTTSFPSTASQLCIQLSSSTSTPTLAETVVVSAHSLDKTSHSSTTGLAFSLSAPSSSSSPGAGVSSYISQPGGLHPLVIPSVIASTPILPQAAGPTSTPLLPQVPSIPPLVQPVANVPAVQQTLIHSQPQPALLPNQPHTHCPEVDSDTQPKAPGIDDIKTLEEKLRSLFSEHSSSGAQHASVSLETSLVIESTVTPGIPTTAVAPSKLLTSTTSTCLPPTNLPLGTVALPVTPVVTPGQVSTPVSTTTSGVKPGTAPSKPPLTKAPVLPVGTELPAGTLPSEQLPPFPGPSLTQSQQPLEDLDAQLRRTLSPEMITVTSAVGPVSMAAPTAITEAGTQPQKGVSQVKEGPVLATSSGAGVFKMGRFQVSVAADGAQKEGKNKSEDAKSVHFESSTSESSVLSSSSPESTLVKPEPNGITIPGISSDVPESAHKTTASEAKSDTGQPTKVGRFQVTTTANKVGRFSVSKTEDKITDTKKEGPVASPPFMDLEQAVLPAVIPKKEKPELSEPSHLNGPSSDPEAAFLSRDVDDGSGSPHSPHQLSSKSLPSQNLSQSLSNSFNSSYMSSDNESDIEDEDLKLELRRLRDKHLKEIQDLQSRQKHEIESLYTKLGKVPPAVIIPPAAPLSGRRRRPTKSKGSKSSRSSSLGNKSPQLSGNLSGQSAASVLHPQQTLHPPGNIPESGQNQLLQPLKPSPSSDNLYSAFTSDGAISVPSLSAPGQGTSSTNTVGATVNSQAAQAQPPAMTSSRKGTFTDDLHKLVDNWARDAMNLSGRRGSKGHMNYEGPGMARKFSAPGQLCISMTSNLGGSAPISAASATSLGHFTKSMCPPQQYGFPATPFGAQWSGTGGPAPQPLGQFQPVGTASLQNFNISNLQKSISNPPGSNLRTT
UniProt Q9UHY1: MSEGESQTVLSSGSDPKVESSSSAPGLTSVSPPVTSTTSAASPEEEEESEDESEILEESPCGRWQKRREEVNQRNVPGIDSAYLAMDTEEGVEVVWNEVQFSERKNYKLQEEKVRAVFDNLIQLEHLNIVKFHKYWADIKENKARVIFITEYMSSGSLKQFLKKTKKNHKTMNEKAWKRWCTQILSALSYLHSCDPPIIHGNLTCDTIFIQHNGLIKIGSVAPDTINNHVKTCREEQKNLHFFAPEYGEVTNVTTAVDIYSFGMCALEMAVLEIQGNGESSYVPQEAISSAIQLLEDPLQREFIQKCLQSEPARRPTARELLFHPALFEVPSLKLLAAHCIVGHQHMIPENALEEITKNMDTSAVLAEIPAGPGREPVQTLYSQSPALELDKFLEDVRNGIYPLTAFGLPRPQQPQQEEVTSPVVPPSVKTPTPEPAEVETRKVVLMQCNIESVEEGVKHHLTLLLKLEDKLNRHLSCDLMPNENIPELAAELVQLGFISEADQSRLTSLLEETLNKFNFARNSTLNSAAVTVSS
UniProt Q15370: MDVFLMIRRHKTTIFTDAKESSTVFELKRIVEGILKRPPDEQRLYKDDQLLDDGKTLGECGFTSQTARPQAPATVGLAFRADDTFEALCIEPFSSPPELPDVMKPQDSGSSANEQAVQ
UniProt Q9Y3S1: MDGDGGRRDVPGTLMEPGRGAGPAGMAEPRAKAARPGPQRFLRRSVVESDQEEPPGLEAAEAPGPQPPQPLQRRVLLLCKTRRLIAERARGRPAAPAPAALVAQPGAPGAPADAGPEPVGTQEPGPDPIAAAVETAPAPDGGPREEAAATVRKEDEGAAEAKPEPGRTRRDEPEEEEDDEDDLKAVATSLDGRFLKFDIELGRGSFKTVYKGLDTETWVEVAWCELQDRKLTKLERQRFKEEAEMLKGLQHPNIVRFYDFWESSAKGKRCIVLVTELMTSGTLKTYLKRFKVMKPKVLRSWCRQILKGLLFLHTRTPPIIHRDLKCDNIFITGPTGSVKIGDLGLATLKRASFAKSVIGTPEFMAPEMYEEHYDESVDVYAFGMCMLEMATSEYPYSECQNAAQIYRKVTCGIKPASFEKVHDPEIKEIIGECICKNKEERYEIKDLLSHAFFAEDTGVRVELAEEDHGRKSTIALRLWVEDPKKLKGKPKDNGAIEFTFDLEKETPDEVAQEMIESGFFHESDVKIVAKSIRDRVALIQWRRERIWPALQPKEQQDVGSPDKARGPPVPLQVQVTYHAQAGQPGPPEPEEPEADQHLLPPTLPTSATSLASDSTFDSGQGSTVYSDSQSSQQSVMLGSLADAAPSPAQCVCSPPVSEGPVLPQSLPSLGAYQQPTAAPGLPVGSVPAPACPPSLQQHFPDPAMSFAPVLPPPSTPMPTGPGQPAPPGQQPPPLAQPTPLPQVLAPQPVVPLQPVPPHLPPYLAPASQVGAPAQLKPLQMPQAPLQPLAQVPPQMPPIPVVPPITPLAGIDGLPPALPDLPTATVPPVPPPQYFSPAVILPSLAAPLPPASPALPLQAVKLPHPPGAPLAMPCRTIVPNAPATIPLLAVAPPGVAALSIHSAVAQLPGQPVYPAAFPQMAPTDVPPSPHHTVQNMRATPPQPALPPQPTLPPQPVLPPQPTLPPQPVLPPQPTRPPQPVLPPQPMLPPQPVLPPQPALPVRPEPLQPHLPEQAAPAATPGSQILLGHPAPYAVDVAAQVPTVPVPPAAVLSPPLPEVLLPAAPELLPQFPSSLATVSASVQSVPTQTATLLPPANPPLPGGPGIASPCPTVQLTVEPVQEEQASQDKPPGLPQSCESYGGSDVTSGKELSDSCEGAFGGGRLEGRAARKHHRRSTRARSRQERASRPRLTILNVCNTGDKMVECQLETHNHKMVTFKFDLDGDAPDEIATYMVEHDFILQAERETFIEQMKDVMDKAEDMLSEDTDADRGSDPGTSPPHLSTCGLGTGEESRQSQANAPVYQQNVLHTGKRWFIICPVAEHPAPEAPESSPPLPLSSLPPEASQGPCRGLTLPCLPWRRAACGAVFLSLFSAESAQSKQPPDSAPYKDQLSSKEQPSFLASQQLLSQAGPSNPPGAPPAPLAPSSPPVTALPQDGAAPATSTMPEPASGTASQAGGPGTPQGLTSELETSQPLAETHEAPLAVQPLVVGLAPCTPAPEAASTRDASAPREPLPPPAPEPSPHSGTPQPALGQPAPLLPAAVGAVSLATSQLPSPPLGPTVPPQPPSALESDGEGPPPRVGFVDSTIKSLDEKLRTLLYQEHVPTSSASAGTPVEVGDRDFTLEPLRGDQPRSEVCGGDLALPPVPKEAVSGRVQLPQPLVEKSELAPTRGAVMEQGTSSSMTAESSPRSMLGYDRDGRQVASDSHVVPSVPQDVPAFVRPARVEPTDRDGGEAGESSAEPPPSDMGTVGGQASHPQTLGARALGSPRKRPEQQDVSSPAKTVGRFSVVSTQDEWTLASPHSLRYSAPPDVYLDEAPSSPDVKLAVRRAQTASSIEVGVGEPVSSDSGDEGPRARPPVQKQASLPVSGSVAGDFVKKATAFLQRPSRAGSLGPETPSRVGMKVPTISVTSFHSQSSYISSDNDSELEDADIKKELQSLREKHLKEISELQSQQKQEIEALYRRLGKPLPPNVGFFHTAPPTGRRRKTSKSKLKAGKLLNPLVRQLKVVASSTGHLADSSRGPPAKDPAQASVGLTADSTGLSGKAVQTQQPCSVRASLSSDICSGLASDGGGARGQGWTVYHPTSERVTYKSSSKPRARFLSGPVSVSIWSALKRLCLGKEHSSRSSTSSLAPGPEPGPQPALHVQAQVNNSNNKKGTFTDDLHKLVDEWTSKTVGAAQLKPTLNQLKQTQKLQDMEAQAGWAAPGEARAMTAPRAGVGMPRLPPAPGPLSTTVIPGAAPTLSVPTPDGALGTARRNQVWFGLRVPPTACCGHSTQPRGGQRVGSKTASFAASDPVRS
UniProt O43248: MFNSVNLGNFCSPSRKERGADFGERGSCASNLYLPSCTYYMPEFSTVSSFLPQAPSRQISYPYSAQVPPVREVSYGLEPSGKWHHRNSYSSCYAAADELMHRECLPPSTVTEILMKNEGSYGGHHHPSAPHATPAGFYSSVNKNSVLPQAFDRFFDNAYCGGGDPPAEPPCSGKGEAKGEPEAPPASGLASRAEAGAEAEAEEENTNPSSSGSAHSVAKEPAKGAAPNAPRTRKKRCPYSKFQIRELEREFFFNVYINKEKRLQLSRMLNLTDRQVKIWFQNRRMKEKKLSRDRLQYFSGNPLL
UniProt P61289: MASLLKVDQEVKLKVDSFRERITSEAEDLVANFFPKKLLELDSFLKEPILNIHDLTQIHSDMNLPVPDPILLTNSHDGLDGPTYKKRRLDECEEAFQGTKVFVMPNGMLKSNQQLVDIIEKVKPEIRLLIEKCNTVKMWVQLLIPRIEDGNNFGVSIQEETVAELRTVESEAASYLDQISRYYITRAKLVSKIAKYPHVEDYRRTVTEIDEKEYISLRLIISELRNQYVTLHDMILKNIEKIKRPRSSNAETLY
UniProt Q9Y297: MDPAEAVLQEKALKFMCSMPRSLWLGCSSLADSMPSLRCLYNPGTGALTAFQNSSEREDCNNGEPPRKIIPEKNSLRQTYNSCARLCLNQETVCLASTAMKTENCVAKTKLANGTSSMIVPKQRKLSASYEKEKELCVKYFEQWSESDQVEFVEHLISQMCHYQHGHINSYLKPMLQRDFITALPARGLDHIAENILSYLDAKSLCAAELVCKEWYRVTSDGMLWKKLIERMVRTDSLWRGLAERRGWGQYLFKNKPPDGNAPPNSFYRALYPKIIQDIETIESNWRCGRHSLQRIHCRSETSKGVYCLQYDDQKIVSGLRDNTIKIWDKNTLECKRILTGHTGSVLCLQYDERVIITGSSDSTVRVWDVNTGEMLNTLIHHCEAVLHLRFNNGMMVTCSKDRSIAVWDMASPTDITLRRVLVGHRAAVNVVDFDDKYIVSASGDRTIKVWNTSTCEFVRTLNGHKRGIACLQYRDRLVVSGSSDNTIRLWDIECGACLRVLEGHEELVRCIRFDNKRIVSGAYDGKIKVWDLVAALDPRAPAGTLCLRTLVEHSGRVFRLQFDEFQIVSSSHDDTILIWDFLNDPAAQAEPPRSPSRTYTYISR

binding, binds:
nuclear receptor binding protein 1 (NRBP1), endogenous (from UniProt Q9UHY1 1-535)

molecular target: GFP-WNK1 (N-terminal GFP knock-in at the endogenous WNK1 locus) (human (endogenous in HEK293)) (UniProt Q9H4A3); experiment: proximity labelling; GFP-WNK1 KI and WT HEK293 cells expressing Flag-TurboID-aGFP6M; 0.5 mM biotin with or without 0.5 M sorbitol for 5 min; streptavidin enrichment from lysate; DIA mass spectrometry

binding, binds:
ELOB, endogenous (from UniProt Q15370 1-118)
WNK2, endogenous (from UniProt Q9Y3S1 1-2297)
WNK3, endogenous (from UniProt Q9BYP7 1-1800)
nuclear receptor binding protein 1 (NRBP1), endogenous (from UniProt Q9UHY1 1-535)
oxidative stress responsive 1 kinase (OXSR1), endogenous (from UniProt O95747 1-527)

molecular target: GFP-NRBP1 (N-terminal GFP knock-in at the endogenous NRBP1 locus) (human (endogenous in HEK293)) (UniProt Q9UHY1); experiment: affinity purification with mass spectrometry; GFP-NRBP1 KI and WT HEK293 cells with or without 0.5 M sorbitol for 30 min; lysis in 20 mM Hepes pH 7.5, 150 mM NaCl, 0.5% NP-40; GFP-Trap magnetic beads, 4°C, 2 hours; DIA mass spectrometry

binding, binds:
ELOB, endogenous (from UniProt Q15370 1-118)
FAM117B, endogenous (from UniProt Q6P1L5 1-589)
HOXC11, endogenous (from UniProt O43248 1-304)
KCTD3, endogenous (from UniProt Q9Y597 1-815)
LOXL1, endogenous (from UniProt Q08397)
MYO5B, endogenous (from UniProt Q9ULV0 1-1848)
PIK3R1, endogenous (from UniProt P27986 1-724)
PIK3R2, endogenous (from UniProt O00459 1-728)
PIK3R3, endogenous (from UniProt Q92569 1-461)
PSME3, endogenous (from UniProt P61289 1-254)
SHKBP1, endogenous (from UniProt Q8TBC3 1-707)
SMARCA1, endogenous (from UniProt P28370 1-1042)
TUBB4A, endogenous (from UniProt P04350 1-444)
WNK1, endogenous (from UniProt Q9H4A3 1-2382)
WNK2, endogenous (from UniProt Q9Y3S1 1-2297)
WNK3, endogenous (from UniProt Q9BYP7 1-1800)
βTrCP1/FBXW1A, endogenous (from UniProt Q9Y297 1-605)
βTrCP2/FBXW1B, endogenous (from UniProt Q9UKB1 1-542)

From PMC12266122
